# Experimental data: patent publication US20260258116A1
# Protein sequences, listed by entry. Tags and fused reporters are not part of them. Residues count along the entry.
# UniProt P14778, residues 18-332: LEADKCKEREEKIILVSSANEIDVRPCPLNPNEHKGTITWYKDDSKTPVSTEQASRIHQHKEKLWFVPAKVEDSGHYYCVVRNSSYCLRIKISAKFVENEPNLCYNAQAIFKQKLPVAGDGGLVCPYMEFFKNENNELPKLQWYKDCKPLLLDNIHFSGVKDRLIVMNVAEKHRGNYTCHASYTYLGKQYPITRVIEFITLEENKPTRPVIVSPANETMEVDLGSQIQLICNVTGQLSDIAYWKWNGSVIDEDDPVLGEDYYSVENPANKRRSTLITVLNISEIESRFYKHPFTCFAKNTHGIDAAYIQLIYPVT
# These are yes or no findings as the source states them, for the method shown. Some entries that bind do so weakly or less than the wild type.
# B1: G2-VHH (also referred to as VHH-G2) (VHH)
# VHH: QVQLVESGGGLVQPGGSLRLSCAASGFTMGDYAIGWFRQVPGKEREGLSYSTKNGIKAYADSVRDRFTISRENAKNTVYLQMNSLKPEDTAVYYCAASTRFGGLLVSRYDYWGQGTQVTVSS
# Experiments:
# human IL1R1 (human) [1] = biological target: human IL1R1 (human) (UniProt P14778); assay: figure legend; ELISA, IL1R1 coated, anti-Avi Tag detection
# human IL1R1 (human) [2] = biological target: human IL1R1 (human) (UniProt P14778); assay: ELISA, IL1R1 coated, anti-Avi Tag detection
binder,measurement,setting,value
B1,binding,human IL1R1 (human) [1],binds
same,binding,human IL1R1 (human) [2],binds
